Our source for the binding values is paper PMC12224947.

Sequences of proteins named here, by UniProt entry; tags and fusion partners are left off.
UniProt Q9Y4X5: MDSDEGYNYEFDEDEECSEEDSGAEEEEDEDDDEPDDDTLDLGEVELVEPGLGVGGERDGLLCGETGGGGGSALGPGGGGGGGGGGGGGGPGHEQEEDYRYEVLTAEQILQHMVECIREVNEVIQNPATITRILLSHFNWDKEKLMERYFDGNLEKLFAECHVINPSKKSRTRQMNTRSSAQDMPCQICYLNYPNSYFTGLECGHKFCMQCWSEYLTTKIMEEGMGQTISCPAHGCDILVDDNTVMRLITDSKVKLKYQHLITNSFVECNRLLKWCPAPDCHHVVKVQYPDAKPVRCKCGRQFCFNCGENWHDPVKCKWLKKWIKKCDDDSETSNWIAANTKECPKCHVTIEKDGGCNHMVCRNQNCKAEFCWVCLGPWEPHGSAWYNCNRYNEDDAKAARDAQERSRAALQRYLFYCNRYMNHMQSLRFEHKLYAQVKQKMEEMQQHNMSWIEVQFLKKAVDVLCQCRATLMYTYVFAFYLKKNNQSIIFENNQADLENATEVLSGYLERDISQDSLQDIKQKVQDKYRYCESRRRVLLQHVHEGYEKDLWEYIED

In assay [1] the target is T1, Prohibitin 1 (PHB1) (human (endogenous in DLD-1, HCT116 and SW480)) (UniProt P35232).
T1 sequence: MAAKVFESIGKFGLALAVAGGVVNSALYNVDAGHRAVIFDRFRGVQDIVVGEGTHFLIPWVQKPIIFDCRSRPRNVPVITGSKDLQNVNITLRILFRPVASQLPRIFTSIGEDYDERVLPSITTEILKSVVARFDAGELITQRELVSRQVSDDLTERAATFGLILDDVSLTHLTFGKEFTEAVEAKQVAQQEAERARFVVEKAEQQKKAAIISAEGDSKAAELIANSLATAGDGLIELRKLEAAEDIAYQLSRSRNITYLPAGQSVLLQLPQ
Kind of assay: co-IP; endogenous proteins, lysates of DLD-1 and HCT116 cells, IgG as control, Western blot. On the technique in general: In western blotting, separated proteins are transferred to a membrane and probed.

Assay [2] concerns the target T2, Myc-PHB1 (UniProt P35232).
T2 sequence: T1 sequence
The assay is described as follows: co-IP; HEK293T cells transfected for 24 h with Flag-ARIH1 (wild type or deletion mutants) and Myc-PHB1 (wild type or deletion mutants); anti-Flag or anti-Myc, Western blot.

Results are given in words; binding and its absence hold for the method and conditions named. In cells and extracts the contact can be indirect. Some results given as binding are weak or reduced against the parent protein; the word gives no strength. For some assays here: Tags and fused reporters may be left off the sequences shown.

Take ARIH1 (from UniProt Q9Y4X5 1-557): the binding entry in assay [1] was “binds”. Turning to Flag-ARIH1 (from UniProt Q9Y4X5 1-557), the binding result in assay [2] is “binds”.
